PubChem BioAssay AID2685 (National Center for Advancing Translational Sciences (NCATS), 2010)
This is one part of the list. The main result of the screen is listed elsewhere. These columns were measured beside it and carry no call. Most of these compounds were active or inconclusive in the main read-out, so they are no random draw. Potencies come from curve fits of mixed quality, noted in brackets.

Assay: qHTS Assay for Lipid Storage Modulators in Drosophila S3 Cells;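 as to cell number change: cells counted by Cell Tracker Red CMTPX staining in the red channel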
Conditions: BODIPY lipid droplet fluorescence, 18-24 h; for cell number change: measured here: cell count max response, cells fed with added oleic acid
Outline: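 Drosophila S3 cells loaded with oleic acid (400 uM, as added) and compounds at several concentrations; lipid droplets imaged by 488-nm laser-scanning cytometry, 500–530 nm intensity and object ratio to cell channel. Percent activity normalized to 20 uM Triacsin C.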

[1] = measured here: lipid fluorescence (Fed channel) AC50, cells fed with added oleic acid
[2] = measured here: cell number channel AC50, cells fed with added oleic acid

Compound | cell number change | AC50 [1] | AC50 [2]
CCc1noc(C)c1C(=O)OCC(=O)NC(=O)c1ccccc1OC | -7.21% | 29.1 µM [falling, single point] | 
COc1ccccc1N(CC(=O)Nc1ccccc1C(=O)NCC(C)C)S(C)(=O)=O | 10.6% |  | 
c1ccc(Cn2nnnc2C(c2cccs2)N2CCOCC2)cc1 (stereo not drawn) | 29.1% | 7.31 µM [falling, partial curve, poor fit] | 
CCN(CC)C(=O)N1CCN(c2c([N+](=O)[O-])c(=O)oc3ccccc23)CC1 | 11.9% | 1.03 µM [rising, partial curve, poor fit] | 
Cc1nc(CNS(=O)(=O)c2cccnc2)cs1 |  |  | 0.00517 µM [rising, full curve, poor fit]
Cc1cc(C)c2c(C)nn(-c3ccccc3)c2n1 |  | 0.58 µM [rising, single point] | 2.06 µM [rising, partial curve]
COc1cccc(/C=N/NC(=O)CNC(=O)c2ccncc2)c1O | -18.5% | 6.51 µM [rising, single point] | 
COc1cccc(CN(C)C(=O)c2ccccc2Sc2ccccc2C#N)c1 | 5.95% | 29.1 µM [rising, single point] | 
CCCc1cc(C(=O)Nc2cc(C)nn2-c2ccccc2)no1 | 13% | 0.146 µM [falling, single point] | 
COc1ccc(S(=O)(=O)N2CCC(C(=O)NCCN3CCOCC3)CC2)cc1C | 17.9% | 0.731 µM [rising, partial curve] | 
CCCCn1c(SCC(=O)NCc2ccco2)nc2cc(S(N)(=O)=O)ccc21 | 33.6% |  | 1.03 µM [rising, full curve, poor fit]
CCC(=O)N1CCN(CCN=CC2=C(O)CC(C)(C)CC2=O)CC1 | -27.6% |  | 
COc1ccc(/C=C(\C#N)C(=O)N2CCOCC2)cc1Br | 5.18% | 6.51 µM [falling, single point] | 6.51 µM [falling, single point]
O=S(=O)(c1cc(O)ccc1O)c1cccc2c(S(=O)(=O)c3cc(O)ccc3O)cccc12 | -17.8% |  | 
CCOc1ccc(C(=O)Nc2nnc(C)s2)cc1OCC | -7.78% | 16.4 µM [rising, partial curve] | 
CCN(CC)S(=O)(=O)c1cccc(-c2nnc(SCC(=O)NC)n2CCc2ccccc2)c1 | -1.77% |  | 
O=S(=O)(NCC(c1ccco1)N1CCOCC1)c1ccc(Cl)cc1 (stereo not drawn) | 9.78% | 18.4 µM [falling, single point] | 
COc1ccccc1/C=C(/C(=O)NCCCn1ccnc1)c1ccccc1 | 18% | 0.184 µM [rising, full curve, poor fit] | 0.184 µM [rising, full curve, poor fit]
CSc1ccccc1NC(=O)c1cc(C)on1 | -4.74% |  | 0.82 µM [falling, partial curve]
COc1ccc(-c2cnnc(N/N=C/c3ccc(OC)c(OC)c3)n2)cc1 | 17.2% | 2.59 µM [rising, partial curve, poor fit] | 0.259 µM [rising, full curve, poor fit]

Entries above that have an aryl methoxy group:
Compound | cell number change | AC50 [1] | AC50 [2]
CCc1noc(C)c1C(=O)OCC(=O)NC(=O)c1ccccc1OC | -7.21% | 29.1 µM [falling, single point] | 
COc1ccccc1N(CC(=O)Nc1ccccc1C(=O)NCC(C)C)S(C)(=O)=O | 10.6% |  | 
COc1cccc(/C=N/NC(=O)CNC(=O)c2ccncc2)c1O | -18.5% | 6.51 µM [rising, single point] | 
COc1cccc(CN(C)C(=O)c2ccccc2Sc2ccccc2C#N)c1 | 5.95% | 29.1 µM [rising, single point] | 
COc1ccc(S(=O)(=O)N2CCC(C(=O)NCCN3CCOCC3)CC2)cc1C | 17.9% | 0.731 µM [rising, partial curve] | 
COc1ccc(/C=C(\C#N)C(=O)N2CCOCC2)cc1Br | 5.18% | 6.51 µM [falling, single point] | 6.51 µM [falling, single point]
COc1ccccc1/C=C(/C(=O)NCCCn1ccnc1)c1ccccc1 | 18% | 0.184 µM [rising, full curve, poor fit] | 0.184 µM [rising, full curve, poor fit]
COc1ccc(-c2cnnc(N/N=C/c3ccc(OC)c(OC)c3)n2)cc1 | 17.2% | 2.59 µM [rising, partial curve, poor fit] | 0.259 µM [rising, full curve, poor fit]

Copied from the list:
Value for O=S(=O)(NCC(c1ccco1)N1CCOCC1)c1ccc(Cl)cc1 (stereo not drawn) under AC50 [1]: 18.4 µM [falling, single point]
Value for Cc1cc(C)c2c(C)nn(-c3ccccc3)c2n1 under AC50 [2]: 2.06 µM [rising, partial curve]

Further compounds follow.

Compound | cell number change | AC50 [1] | AC50 [2]
CN(Cc1ccccc1)c1ccc(C(CC(N)=O)NC(=O)Cc2ccc(Br)cc2)cc1[N+](=O)[O-] (stereo not drawn) | -6.96% | 29.1 µM [falling, single point] | 
O=C(OCc1nc2ccccc2s1)c1ccc([N+](=O)[O-])o1 | 15.4% | 0.116 µM [falling, single point] | 
CC(OC(=O)C1CSC2(c3ccc(F)cc3)CCC(=O)N12)C(=O)NC(N)=O (stereo not drawn) | 30.1% |  | 3.26 µM [rising, partial curve, poor fit]
CCCCOC(=O)CSc1nc2c(cc1C#N)C(=O)CC(C)(C)C2 |  | 6.51 µM [rising, single point] | 
COC(=O)C1=C(C)N(Cc2ccccc2)C(=NCC2CC2)N[C@H]1c1ccc(Br)cc1 | -34.3% | 29.1 µM [falling, partial curve, poor fit] | 29.1 µM [falling, single point]
COc1ccc(CC(=O)OCC(=O)c2ccc(OC)c(OC)c2)cc1 | -34.1% | 0.92 µM [falling, full curve, poor fit] | 0.651 µM [falling, full curve, poor fit]
COc1cc(CNc2nnnn2C)cc(OC)c1OC | 18.5% |  | 
COc1ccccc1NC(=O)c1sc2nc3n(c(=O)c2c1C)CCC3 | 32.8% | 0.651 µM [falling, partial curve, poor fit] | 29.1 µM [rising, single point]
COC(=O)CC#N | -19.5% |  | 0.517 µM [falling, single point]
COc1cc(OC)nc(N/N=C(\c2ccccc2)c2ccncc2)n1 |  | 7.31 µM [rising, partial curve] | 0.92 µM [falling, partial curve]
CCOc1ccccc1N(CC(=O)Nc1ccc(OC)cc1)S(=O)(=O)c1ccccc1 | -19.2% | 7.31 µM [falling, partial curve, poor fit] | 
Nc1ccc(Sc2ccccc2CC(=O)O)cc1 | -19.6% |  | 
COc1cc(C)c(Cl)cc1S(=O)(=O)NCCCN1CCOCC1 | 8.75% | 0.461 µM [falling, full curve, poor fit] | 
CC(=O)NCC(=O)OCC(=O)c1ccc(Br)cc1 | 0.94% | 0.103 µM [rising, full curve, poor fit] | 
O=C(Nc1ccc(Cl)cc1)c1cc(Br)ccc1OCC(=O)N1CCOCC1 | -25.2% | 2.06 µM [falling, full curve] | 
CC1CCN(S(=O)(=O)CCNC(=O)c2ccc(F)cc2)CC1 | -13.9% | 0.517 µM [falling, full curve] | 0.517 µM [falling, full curve]
COc1ccc2oc(=O)c(C(=O)Nc3cccc(C(C)=O)c3)cc2c1 | 16.8% |  | 
CC1(C)CNC(=O)C=C(c2ccccc2)C1 | -8.09% |  | 
CC1CN(CC(O)COC(c2ccc(Cl)cc2)c2ccc(Cl)cc2)CC(C)O1 (stereo not drawn) | -60.7% | 10.3 µM [falling, partial curve] | 23.1 µM [falling, partial curve]
Cc1cc(=O)oc2cc(OCC(=O)NC3(C#N)CCCCC3)c(Cl)cc12 | -7% |  | 

Compound | cell number change | AC50 [1] | AC50 [2]
Cc1ccc(NC(=O)c2ccc3ccccc3n2)cc1S(=O)(=O)N(C)C | 13.1% |  | 
CN1CCN(Cc2coc3c(Cl)cc(Cl)cc3c2=O)CC1 | 9.68% | 29.1 µM [rising, partial curve, poor fit] | 
COc1ccc(/C=N/Nc2nc(Nc3ccccc3)nc(N3CCCCC3)n2)c(OC)c1 | 34% |  | 14.6 µM [rising, partial curve, poor fit]
Cn1c(NCCN2CCCCC2)cc(=O)n(C)c1=O | -29.2% | 14.6 µM [falling, partial curve] | 3.66 µM [falling, single point]
CCOC(=O)CCC(=O)NNC(=O)COc1ccc(C(C)C)cc1Br | 12.2% | 0.316 µM [rising, full curve] | 
O=C(N/N=C1\CCSC1)c1cc(Cl)ccc1O | -0.735% | 1.16 µM [falling, full curve] | 0.82 µM [falling, full curve]
Cc1ccccc1NC(=O)c1sc2nc3c(c(-c4ccco4)c2c1N)CCC3 |  | 0.461 µM [rising, full curve] | 0.291 µM [rising, partial curve, poor fit]
Cc1ccsc1C1C(C#N)=C(N)OC2=C1C(=O)CCC2 (stereo not drawn) | -14.7% | 32.6 µM [falling, single point] | 
CN(CCO)c1ccc(/C=N/Nc2nncc3ccccc23)cc1 | 16.3% |  | 0.82 µM [rising, full curve, poor fit]
COc1ccccc1CNC(=O)CSc1n[nH]c(N)n1 | 4.5% |  | 
O=C(O)CCCN1C(=O)c2ccc(C(=O)c3cccc([N+](=O)[O-])c3)cc2C1=O | -31.7% | 0.326 µM [falling, full curve, poor fit] | 0.13 µM [falling, full curve, poor fit]
CCc1nc2ccc(C(=O)N3CCN(c4cccc(OC)c4)CC3)cc2nc1CC | -9.2% | 6.51 µM [rising, single point] | 
COc1ccc(CN2C(=O)c3cccnc3C2=O)cc1S(=O)(=O)NCc1ccc(C)o1 | 77.9% | 29.1 µM [falling, single point] | 23.1 µM [rising, single point]
COc1cccc(NC(=O)CNC(=O)N2CC(=O)Nc3ccccc32)c1 | -27.6% | 6.51 µM [rising, single point] | 
Cc1ccc(S(=O)(=O)c2c(N)n(CCCN(C)C)c3nc4ccccc4nc23)cc1 | 7.25% |  | 
O=C(CN1CCN(c2ccccn2)CC1)Nc1ccccc1C(=O)Nc1ccccc1 | 49% |  | 8.2 µM [rising, partial curve]
O=C(Cn1ncc2c(=O)oc3ccccc3c21)N1CCC(N2CCCCC2)CC1 | -53.3% |  | 29.1 µM [falling, single point]
CCOc1ccc(CC(=O)NNC(=O)/C=C/C(=O)O)cc1 | 16.5% | 14.6 µM [rising, single point] | 
Cc1ccccc1-c1noc(CCC(=O)NC2CCCCC2)n1 | 21.3% | 6.51 µM [rising, single point] | 
O=C(Nc1ccc2c(c1)C(=O)N(c1ccccc1)C2=O)c1cccs1 | -9.87% | 4.11 µM [falling, full curve, poor fit] | 
